# Laboratory results from the supplement of paper PMC8728848.
# The list shows a part of the results.
# B1: GS13814A-bth-462-26-462 (Bacteroides thetaiotaomicron) (protein)
# chain: DDRDNLMVNDQIGLLHSTYTETEIFRGMDTPYQLFVIKSGKGKQETEVSISVDETVLQSYNTDNGTSIQLLPSDCYTILQPALRLNDSDYRKAFDIKWNADRLSDLLSTGKEYGLPIQMSVVQNFISADDERLKTIIVPTIKEPYLQMDVPGMSPVTDFMPTFGDLNERELFVKIRTNYSNDEDISFQIEVDPQLVIDYNTAHGTAYKMLPESSFTVDNKGVILTGMKETFIKIKYHKKGLIPEEGTYLFGDYVLPLRITSVSKYGISPDAASKLYTVKFQPDPIDKKGWSVIDFNNCCTQDGGWYLNMGWGVESLIDNNPGTQWLCRWDVKEPLPYYFVFDMGKEYTLFRFGFANPVAPAAHVWAGTSKAGYVEASIDNENWVKLKDWTSPKIGEPNVNMDVPATQARYIRFVITDTYPTYDGLRVSLGEVYAWGM
# Columns and labels:
# Assay in all cases: glycan array binding signal (z-score within array); higher = stronger binding
# Conditions in all cases: glycan notation: IUPAC condensed, linker removed
# [1] = molecular target: Fuc(a1-3)GlcNAc
# How it was run: (§1)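 Glycan array data were curated from 3228 arrays in the Consortium for Functional Glycomics database and kept only where the protein sequence was available. Glycan names were converted to IUPAC-condensed notation, and columns mapping to the same glycan were averaged. The binding signal is a within-array Z-score, averaged across arrays of the same protein sequence at different concentrations or buffers and across linkers. Negative Z-scores can be read as non-binding.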
# [2] = molecular target: Fuc(a1-3)[Gal(b1-4)]Glc6S
# How it was run: as §1
# [3] = molecular target: Fuc(a1-3)[Gal(b1-4)]GlcNAc
# How it was run: as §1
# [4] = molecular target: Fuc(a1-3)[Gal(b1-4)]GlcNAc(b1-2)Man
# How it was run: as §1
# [5] = molecular target: Fuc(a1-3)[Gal(b1-4)]GlcNAc(b1-2)Man(a1-3)[Fuc(a1-3)[Gal(b1-4)]GlcNAc(b1-2)Man(a1-6)]Man(b1-4)GlcNAc(b1-4)GlcNAc
# How it was run: as §1
# [6] = molecular target: Fuc(a1-3)[Gal(b1-4)]GlcNAc(b1-2)Man(a1-3)[Fuc(a1-3)[Gal(b1-4)]GlcNAc(b1-2)Man(a1-6)]Man(b1-4)GlcNAc(b1-4)[Fuc(a1-6)]GlcNAc
# How it was run: as §1
# [7] = molecular target: Fuc(a1-3)[Gal(b1-4)]GlcNAc(b1-3)Gal(b1-3)[Fuc(a1-4)]GlcNAc
# How it was run: as §1
# [8] = molecular target: Fuc(a1-3)[Gal(b1-4)]GlcNAc(b1-3)Gal(b1-4)[Fuc(a1-3)]GlcNAc
# How it was run: as §1
# [9] = molecular target: Fuc(a1-3)[Gal(b1-4)]GlcNAc(b1-3)Gal(b1-4)[Fuc(a1-3)]GlcNAc(b1-3)Gal(b1-4)[Fuc(a1-3)]GlcNAc
# How it was run: as §1
# [10] = molecular target: Fuc(a1-3)[Gal(b1-4)]GlcNAc(b1-3)GalNAc
# How it was run: as §1
# [11] = molecular target: Fuc(a1-3)[Gal(b1-4)]GlcNAc(b1-6)GalNAc
# How it was run: as §1
# [12] = molecular target: Fuc(a1-3)[Gal(b1-4)]GlcNAc(b1-6)[Gal(b1-3)GlcNAc(b1-3)]Gal(b1-4)Glc
# How it was run: as §1
# [13] = molecular target: Fuc(a1-3)[Gal(b1-4)]GlcNAc6S
# How it was run: as §1
# [14] = molecular target: Fuc(a1-3)[Gal3S(b1-4)]Glc
# How it was run: as §1
# [15] = molecular target: Fuc(a1-3)[Gal3S(b1-4)]GlcNAc
# How it was run: as §1
# [16] = molecular target: Fuc(a1-3)[Gal3S(b1-4)]GlcNAc6S
# How it was run: as §1
# [17] = molecular target: Fuc(a1-3)[GalNAc(b1-4)]GlcNAc
# How it was run: as §1
# [18] = molecular target: Fuc(a1-3)[GalNAc(b1-4)]GlcNAc6S
# How it was run: as §1
# [19] = molecular target: Fuc(a1-4)GlcNAc
# How it was run: as §1
# [20] = molecular target: Fuc(b1-3)GlcNAc
# How it was run: as §1
# [21] = molecular target: Gal(a1-2)Gal
# How it was run: as §1
# [22] = molecular target: Gal(a1-3)Gal
# How it was run: as §1
# [23] = molecular target: Gal(a1-3)Gal(b1-3)GlcNAc
# How it was run: as §1
# [24] = molecular target: Gal(a1-3)Gal(b1-3)GlcNAc(b1-2)Man
# How it was run: as §1
# [25] = molecular target: Gal(a1-3)Gal(b1-3)GlcNAc(b1-2)Man(a1-3)[Gal(a1-3)Gal(b1-3)GlcNAc(b1-2)Man(a1-6)]Man(b1-4)GlcNAc(b1-4)GlcNAc
# How it was run: as §1
# [26] = molecular target: Gal(a1-3)Gal(b1-3)GlcNAc(b1-3)GalNAc
# How it was run: as §1
# [27] = molecular target: Gal(a1-3)Gal(b1-3)GlcNAc(b1-6)GalNAc
# How it was run: as §1
# [28] = molecular target: Gal(a1-3)Gal(b1-3)[Fuc(a1-4)]GlcNAc(b1-2)Man(a1-3)[Gal(a1-3)Gal(b1-3)[Fuc(a1-4)]GlcNAc(b1-2)Man(a1-6)]Man(b1-4)GlcNAc(b1-4)GlcNAc
# How it was run: as §1
# [29] = molecular target: Gal(a1-3)Gal(b1-4)Glc
# How it was run: as §1
# [30] = molecular target: Gal(a1-3)Gal(b1-4)GlcNAc
# How it was run: as §1
# [31] = molecular target: Gal(a1-3)Gal(b1-4)GlcNAc(b1-2)Man
# How it was run: as §1
# [32] = molecular target: Gal(a1-3)Gal(b1-4)GlcNAc(b1-2)Man(a1-3)[Gal(a1-3)Gal(b1-4)GlcNAc(b1-2)Man(a1-6)]Man(b1-4)GlcNAc(b1-4)GlcNAc
# How it was run: as §1
# [33] = molecular target: Gal(a1-3)Gal(b1-4)GlcNAc(b1-3)GalNAc
# How it was run: as §1
# [34] = molecular target: Gal(a1-3)Gal(b1-4)GlcNAc(b1-6)GalNAc
# How it was run: as §1
# [35] = molecular target: Gal(a1-3)Gal(b1-4)[Fuc(a1-3)]GlcNAc
# How it was run: as §1
# [36] = molecular target: Gal(a1-3)Gal(b1-4)[Fuc(a1-3)]GlcNAc(b1-2)Man(a1-3)[Gal(a1-3)Gal(b1-4)[Fuc(a1-3)]GlcNAc(b1-2)Man(a1-6)]Man(b1-4)GlcNAc(b1-4)GlcNAc
# How it was run: as §1
# [37] = molecular target: Gal(a1-3)GalNAc
# How it was run: as §1
binder,measurement,setting,value
B1,glycan array binding signal (z-score),[1],0.173
same,glycan array binding signal (z-score),[2],-0.89
same,glycan array binding signal (z-score),[3],-0.799
same,glycan array binding signal (z-score),[4],0.981
same,glycan array binding signal (z-score),[5],-0.036
same,glycan array binding signal (z-score),[6],0.09
same,glycan array binding signal (z-score),[7],-0.028
same,glycan array binding signal (z-score),[8],0.142
same,glycan array binding signal (z-score),[9],-0.326
same,glycan array binding signal (z-score),[10],-0.553
same,glycan array binding signal (z-score),[11],0.375
same,glycan array binding signal (z-score),[12],-1.09
same,glycan array binding signal (z-score),[13],0.674
same,glycan array binding signal (z-score),[14],-0.86
same,glycan array binding signal (z-score),[15],1.23
same,glycan array binding signal (z-score),[16],-0.631
same,glycan array binding signal (z-score),[17],2.12
same,glycan array binding signal (z-score),[18],-0.857
same,glycan array binding signal (z-score),[19],14.3
same,glycan array binding signal (z-score),[20],1.35
same,glycan array binding signal (z-score),[21],-0.831
same,glycan array binding signal (z-score),[22],0.164
same,glycan array binding signal (z-score),[23],-0.542
same,glycan array binding signal (z-score),[24],-1.19
same,glycan array binding signal (z-score),[25],1.04
same,glycan array binding signal (z-score),[26],-0.741
same,glycan array binding signal (z-score),[27],-0.571
same,glycan array binding signal (z-score),[28],-0.262
same,glycan array binding signal (z-score),[29],0.383
same,glycan array binding signal (z-score),[30],0.048
same,glycan array binding signal (z-score),[31],-0.41
same,glycan array binding signal (z-score),[32],-0.267
same,glycan array binding signal (z-score),[33],-0.778
same,glycan array binding signal (z-score),[34],-1.23
same,glycan array binding signal (z-score),[35],-0.925
same,glycan array binding signal (z-score),[36],-0.07
same,glycan array binding signal (z-score),[37],0.128

# Part of the list above, set out differently.
binder | measurement | setting | value
B1 | glycan array binding signal (z-score) | [1] | 0.173
same | glycan array binding signal (z-score) | [2] | -0.89
same | glycan array binding signal (z-score) | [3] | -0.799
same | glycan array binding signal (z-score) | [4] | 0.981
same | glycan array binding signal (z-score) | [5] | -0.036
same | glycan array binding signal (z-score) | [6] | 0.09
